# No constants are given. Whether binding was seen depends on the method and setting. Binding seen in cells or lysates may run through a third protein. Here binding means that the protein was enriched with, or labelled near, the bait; the list need not be complete.
# Molecular target: STAU2^52-TurboID-HA (human)
# Experiment: proximity labelling; TurboID: hTERT-RPE1 cells stably expressing STAU2^52-TurboID-HA (control YFP-TurboID-HA), 50 uM biotin for 4 h in the presence or absence of the CHK1 inhibitor PF47, RIPA lysis, streptavidin-coated magnetic beads, LC-MS/MS; SAINT probability greater than 0.7, CRAPome
binder,measurement,value
"SMEG2 (protein, UniProt Q02383 24-582) QKGGSKGQLPSGSSQFPHGQKGQHYFGQKDQQHTKSKGSFSIQHTYHVDINDHDWTRKSQQYDLNALHKATKSKQHLGGSQQLLNYKQEGRDHDKSKGHFHMIVIHHKGGQAHHGTQNPSQDQGNSPSGKGLSSQCSNTEKRLWVHGLSKEQASASGAQKGRTQGGSQSSYVLQTEELVVNKQQRETKNSHQNKGHYQNVVDVREEHSSKLQTSLHPAHQDRLQHGPKDIFTTQDELLVYNKNQHQTKNLSQDQEHGRKAHKISYPSSRTEERQLHHGEKSVQKDVSKGSISIQTEEKIHGKSQNQVTIHSQDQEHGHKENKISYQSSSTEERHLNCGEKGIQKGVSKGSISIQTEEQIHGKSQNQVRIPSQAQEYGHKENKISYQSSSTEERRLNSGEKDVQKGVSKGSISIQTEEKIHGKSQNQVTIPSQDQEHGHKENKMSYQSSSTEERRLNYGGKSTQKDVSQSSISFQIEKLVEGKSQIQTPNPNQDQWSGQNAKGKSGQSADSKQDLLSHEQKGRYKQESSESHNIVITEHEVAQDDHLTQQYNEDRNPIST",binding,binds

# Reference: paper PMC7934504
